{
  "source": "patent US20080033032A1",
  "about": "“Novel Polymorphs Of The Potassium Salt Of Atorvastatin” (Sandoz A/S, priority 2004, published 2008)",
  "details": "H 4.0 (pH 4.0); visual inspection",
  "data": [
    {"smiles": "CC(C)c1c(C(=O)Nc2ccccc2)c(-c2ccccc2)c(-c2ccc(F)cc2)n1CC[C@@H](O)C[C@@H](O)CC(=O)[O-].[K+]", "note": "[Form I]", "values": [
      {"measurement": "Appearance of the solution in the solubility test", "value": "opalescent"}
    ]}
  ]
}
